According to patent publication US10596223B2 (Xigen Inflammation Ltd., priority 2011, dated 2020):

Experiment: general procedure: Fmoc solid-phase peptide synthesis; Fmoc-Rink amide-MBHA resin; PyBOB/diisopropylethylamine/1-hydroxybenzotriazole (printed for linker coupling)
Conditions: whole synthesis, scale 0.7 mmol, acetate salt

## H-[dR]KKR[dR]QRR[dR]RP[dK]RP[dA]TLNL[dF]-NH2 (N-terminus assumed; SMILES CC(C)C[C@H](NC(=O)[C@H](CC(N)=O)NC(=O)[C@H](CC(C)C)NC(=O)[C@@H](NC(=O)[C@@H](C)NC(=O)[C@@H]1CCCN1C(=O)[C@H](CCCNC(=N)N)NC(=O)[C@@H](CCCCN)NC(=O)[C@@H]1CCCN1C(=O)[C@H](CCCNC(=N)N)NC(=O)[C@@H](CCCNC(=N)N)NC(=O)[C@H](CCCNC(=N)N)NC(=O)[C@H](CCCNC(=N)N)NC(=O)[C@H](CCC(N)=O)NC(=O)[C@@H](CCCNC(=N)N)NC(=O)[C@H](CCCNC(=N)N)NC(=O)[C@H](CCCCN)NC(=O)[C@H](CCCCN)NC(=O)[C@H](N)CCCNC(=N)N)[C@@H](C)O)C(=O)N[C@H](Cc1ccccc1)C(N)=O)
  final purity (method not given): ≥95%

Square brackets hold non-standard residues; d marks the D form.
